Data reported in patent US20240002361A1, “COMPOSITIONS AND METHODS FOR BLOCKING NEUROPILIN RECEPTOR 1 FOR THE TREATMENT OF PAIN AND PREVENTION OF VIRAL ENTRY” (Arizona Board of Regents on Behalf of the University of …, priority 2020, published 2024).
Some of these results come from one statement about several compounds together. For at least one compound, name, drawing or mass did not settle the structure.

Test system: VSV-eGFP-SARS-CoV-2
Type: cell-based

Compound	inhibition of VSV-eGFP-SARS-CoV-2 antiviral activity [%]
COc1cccc(-c2cc(=O)[nH]c(Nc3ccccc3)n2)c1 [Compound 1]	> 50
COc1ccccc1Nc1nc(-c2cnc(N3CCCC3)nc2C)cc(=O)[nH]1 [Compound 5]	> 50
